Data from paper PMC5515582.

Sequences of proteins named here, by UniProt entry; tags and fusion partners are left off. A change or cut given only in a name is not applied to a line headed by its entry.
UniProt A0A499PM71: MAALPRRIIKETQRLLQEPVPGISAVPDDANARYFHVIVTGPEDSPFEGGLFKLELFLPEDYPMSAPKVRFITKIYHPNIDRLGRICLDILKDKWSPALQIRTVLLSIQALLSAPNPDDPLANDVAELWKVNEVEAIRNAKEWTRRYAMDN

Target: GPS2-His, full-length G protein pathway suppressor 2 of the small brown planthopper (small brown planthopper, Laodelphax striatellus)
Test: pull-down; His-tag pull-down with three recombinant proteins: GPS2-His on Ni Sepharose as bait for Ubc13-GST at a series of dilutions of CP-GST

Substance: Ubc13-GST, GST-tagged E2 ubiquitin-conjugating enzyme Ubc13 of the small brown planthopper (from UniProt A0A499PM71)
- binding: binds

No constants are given. Whether binding was seen depends on the method and setting. In cells and extracts the contact can be indirect. Binding can be weak; no strength is given.
